Among the data in paper PMC11289102 are binding values, retold here.

The chains behind the UniProt entries cited, without tags or fusion partners.
UniProt P11440: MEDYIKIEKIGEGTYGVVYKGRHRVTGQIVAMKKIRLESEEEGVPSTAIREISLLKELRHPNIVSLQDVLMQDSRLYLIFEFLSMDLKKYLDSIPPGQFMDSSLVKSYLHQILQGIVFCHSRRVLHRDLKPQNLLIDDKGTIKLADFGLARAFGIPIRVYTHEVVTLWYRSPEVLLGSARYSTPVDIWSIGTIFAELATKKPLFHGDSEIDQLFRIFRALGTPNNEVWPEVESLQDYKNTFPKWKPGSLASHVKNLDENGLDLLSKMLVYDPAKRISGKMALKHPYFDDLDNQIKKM

No constants are given. Whether binding was seen depends on the method and setting. In cells and extracts the contact can be indirect. Some results given as binding are weak or reduced against the parent protein; the word gives no strength. Tags and fused reporters may be left off the sequences shown.

The target in test [1] is T1, Flag-Hmmr (hyaluronan mediated motility receptor) (UniProt Q00547).
T1 sequence: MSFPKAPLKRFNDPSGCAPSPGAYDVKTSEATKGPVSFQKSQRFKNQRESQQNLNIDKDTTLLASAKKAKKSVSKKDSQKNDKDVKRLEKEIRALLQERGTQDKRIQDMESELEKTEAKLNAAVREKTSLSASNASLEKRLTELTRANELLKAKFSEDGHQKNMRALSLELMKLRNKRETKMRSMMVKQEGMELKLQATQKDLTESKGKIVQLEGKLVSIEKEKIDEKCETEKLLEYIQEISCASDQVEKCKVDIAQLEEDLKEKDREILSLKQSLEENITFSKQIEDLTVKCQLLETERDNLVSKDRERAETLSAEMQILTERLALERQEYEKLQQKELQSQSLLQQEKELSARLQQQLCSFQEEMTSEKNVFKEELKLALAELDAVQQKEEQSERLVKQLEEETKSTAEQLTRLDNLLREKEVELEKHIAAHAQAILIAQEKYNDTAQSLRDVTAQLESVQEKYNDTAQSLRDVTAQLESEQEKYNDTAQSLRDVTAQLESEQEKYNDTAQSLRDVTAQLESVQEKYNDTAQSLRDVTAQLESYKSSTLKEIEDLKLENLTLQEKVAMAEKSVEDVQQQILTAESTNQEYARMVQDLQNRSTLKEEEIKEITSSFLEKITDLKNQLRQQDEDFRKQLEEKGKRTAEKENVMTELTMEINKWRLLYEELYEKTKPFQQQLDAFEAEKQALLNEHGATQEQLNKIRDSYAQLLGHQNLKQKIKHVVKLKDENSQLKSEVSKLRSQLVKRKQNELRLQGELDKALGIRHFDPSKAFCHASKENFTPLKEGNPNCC
Description: co-IP; HEK293T transfected with HA-Mmrn1, Flag-Hmmr or Myc-Cdk1 plasmid; cell membrane lysate; immunoprecipitated with antibodies against HA, Flag and Myc, protein G Sepharose; blotted with antibodies against HA, Flag and Myc.

Test [2] concerns the target T2, HA-Mmrn1 (multimerin 1) (UniProt B2RPV6).
T2 sequence: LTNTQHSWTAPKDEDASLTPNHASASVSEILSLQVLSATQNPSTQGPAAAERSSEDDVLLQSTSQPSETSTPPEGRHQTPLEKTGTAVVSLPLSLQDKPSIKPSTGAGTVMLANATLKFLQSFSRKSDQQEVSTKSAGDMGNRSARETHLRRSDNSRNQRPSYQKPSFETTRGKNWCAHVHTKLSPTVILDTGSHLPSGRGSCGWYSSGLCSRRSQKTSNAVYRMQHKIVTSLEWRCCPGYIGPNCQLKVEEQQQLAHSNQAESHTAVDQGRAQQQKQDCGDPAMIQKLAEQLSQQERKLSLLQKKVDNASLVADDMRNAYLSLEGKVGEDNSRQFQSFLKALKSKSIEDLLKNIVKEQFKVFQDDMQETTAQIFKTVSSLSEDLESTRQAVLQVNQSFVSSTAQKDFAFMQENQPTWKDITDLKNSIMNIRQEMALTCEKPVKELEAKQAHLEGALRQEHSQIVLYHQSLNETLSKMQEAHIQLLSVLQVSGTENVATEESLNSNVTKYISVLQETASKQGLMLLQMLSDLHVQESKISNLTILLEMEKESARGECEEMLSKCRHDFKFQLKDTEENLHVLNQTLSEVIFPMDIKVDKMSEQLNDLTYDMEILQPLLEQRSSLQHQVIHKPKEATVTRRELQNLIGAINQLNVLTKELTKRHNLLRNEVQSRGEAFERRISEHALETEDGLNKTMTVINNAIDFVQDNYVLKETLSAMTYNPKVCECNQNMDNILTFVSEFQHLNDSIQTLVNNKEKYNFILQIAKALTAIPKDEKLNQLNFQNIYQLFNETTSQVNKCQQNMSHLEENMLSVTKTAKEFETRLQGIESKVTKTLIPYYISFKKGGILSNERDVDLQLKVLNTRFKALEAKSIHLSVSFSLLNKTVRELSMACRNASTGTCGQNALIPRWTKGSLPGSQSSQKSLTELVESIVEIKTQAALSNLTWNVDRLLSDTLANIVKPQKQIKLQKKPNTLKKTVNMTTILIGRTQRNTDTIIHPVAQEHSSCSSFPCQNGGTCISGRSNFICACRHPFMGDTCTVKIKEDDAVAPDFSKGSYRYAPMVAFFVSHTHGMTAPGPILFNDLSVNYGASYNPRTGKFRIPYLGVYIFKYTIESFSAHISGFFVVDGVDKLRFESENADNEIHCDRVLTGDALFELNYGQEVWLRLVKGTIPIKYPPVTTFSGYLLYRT
Described as above.

On to “Myc-Cdk1 (cyclin-dependent kinase 1) (from UniProt P11440 1-297)”, for which the binding entry in test [1] and in test [2] was “binds” in each case.

B1: Flag-Hmmr (hyaluronan mediated motility receptor) (protein, UniProt Q00547 1-794)
chain: T1 sequence
With B1, the binding entry in test [2] is reported as “binds”.
